About 7,500 (2.1%) of roughly 360,000 compounds were called active. Inconclusive means that the source gave no clear call. Such entries were picked first, then a sample of the others. Calls come from the whole dose curve; as a rule, active = well fitted inhibition curve with a large enough effect; inconclusive = small, poorly fitted or top-dose-only effect, or effect the other way; inactive = flat fitted curve, though single readings scatter. A potency beside an inconclusive call is a rough fit, not a confirmed value.
Assay: Nrf2 qHTS screen for inhibitors; note: nearly all actives have a fitted effect of over 60% in size
Details: A549 ARE-Fluc reporter, luciferase luminescence, 18-24 h; series mostly up to 46 µM
Procedure, shortened: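 A549 ARE_Fluc cells (5000/well, 5% FBS OPTI-MEM) pre-incubated 2 h, then treated with compounds 18-24 h at 37C/5% CO2 in concentration-response. CellTiter-Fluor viability read first; BugLite luciferase luminescence after 15 min at room temperature gives Nrf2 activity.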
With `O=C(Nc1ccc(Oc2ccc(NC(=O)c3ccco3)c(NC(=O)c3ccco3)c2)cc1)c1ccco1` the Potency was inconclusive: 23.1 µM [falling, partial curve, poor fit]. For `Cc1cccc2cn[nH]c12`, the Potency was inconclusive: 2.91 µM [activator, full curve]. In the case of `Cc1ccc(Cn2c(SC(C)C(N)=O)nc3ccccc3c2=O)cc1` (stereo unspecified), the Potency is reported as inconclusive: 3.26 µM [falling, full curve, poor fit]. With `Cc1ccc(C(=O)NC(=S)Nc2cccc3nsnc23)cc1` the Potency was inconclusive: 25.9 µM [activator, single point]. For `Cc1nc2ncccn2c1-c1csc(Nc2ccc(O)cc2)n1`, the Potency was inconclusive: 29.1 µM [activator, single point]. With `CCNC(=O)c1ccccc1NC(=O)c1cccc(S(=O)(=O)N2CCC(C)CC2)c1` the Potency was inconclusive: 20.6 µM [falling, single point]. For `Cn1c(-c2cc3ccc(OC(=O)C(C)(C)C)cc3oc2=O)nc2ccccc21`, the Potency was inconclusive: 29.1 µM [activator, single point]. With `COc1ccc(C(=S)Nc2ccc(N(C)C)cc2)cc1` the Potency was inconclusive: 3.26 µM [activator, full curve]. For `CC1CCCCC1n1c(=S)[nH]c2ccccc2c1=O` (stereo unspecified), the Potency was inconclusive: 29.1 µM [falling, partial curve, poor fit]. With `O=[N+]([O-])c1ccc2cc[nH]c2c1` the Potency was “inactive”. In the case of `Cc1ccc2c(CC(=O)Nc3c(C(=O)c4ccc(F)cc4)oc4ccccc34)coc2c1`, the Potency is reported as “inactive”. For `COc1ccc(S(=O)(=O)n2nc(OC(=O)c3cccs3)cc2N)cc1`, the Potency was “inactive”. With `CCOC(=O)C1CCCN(C(=O)CCc2ccccc2)C1` (stereo unspecified) the Potency was inconclusive: 0.164 µM [falling, full curve]. For `Nc1nc(Cl)nc2c1ncn2[C@H]1C[C@H](O)[C@@H](CO)O1`, the Potency was active: 0.013 µM. For `Cc1cccc(NC(=O)Nc2ccc(Cl)cc2)n1`, the Potency was inconclusive: 6.51 µM [activator, partial curve, poor fit]. In the case of `CCC(C(=O)N1CCc2cc(OC)c(OC)cc2C1)c1ccccc1` (stereo unspecified), the Potency is reported as inconclusive: 20.6 µM [activator, partial curve, poor fit]. With `COc1cc(NC(=O)CCc2ccccc2)c(C(=O)O)cc1OC` the Potency was inconclusive: 6.51 µM [activator, single point]. For `O=C1N[C@H]2CC=C[C@H]2N(Cc2cccs2)c2ccccc21`, the Potency was inconclusive: 2.91 µM [activator, partial curve]. With `O=C(CSCC(=O)Nc1nc(-c2ccc3c(c2)OCO3)cs1)Nc1nccs1` the Potency was active: 20.6 µM. With `COc1cccc(NC(=O)CN(C)C(=O)Cc2cccc3ccccc23)c1` the Potency was “inactive”. In the case of `N#CCC(=O)NNc1c([N+](=O)[O-])cc(C(F)(F)F)cc1[N+](=O)[O-]`, the Potency is reported as inconclusive: 10.3 µM [falling, partial curve]. For `CN(C)C(=O)CCCc1nc(-c2ccc(Cl)cc2)no1`, the Potency was inconclusive: 32.6 µM [falling, single point]. In the case of `COc1ccc(-n2c(Cc3cccn3C)nnc2SCC(=O)NCCc2ccccc2)cc1`, the Potency is reported as inconclusive: 29.1 µM [falling, single point]. With `N/C(=N\OC(=O)COc1ccc(Cl)cc1Cl)c1ccncc1` the Potency was inconclusive: 2.91 µM [activator, partial curve, poor fit]. In the case of `CCOc1ccc(C(=O)NCc2cccs2)cc1`, the Potency is reported as inconclusive: 23.1 µM [activator, partial curve, poor fit]. For `COc1ccc2[nH]c3c(c2c1)CCN1C(=O)N([C@@H](C)C(=O)NCCc2ccc(OC)c(OC)c2)C(=O)[C@]31C`, the Potency was inconclusive: 23.1 µM [falling, partial curve, poor fit]. With `Cc1ccc(C(=O)N2CCN(c3ccc([N+](=O)[O-])c(NCc4cccnc4)c3)CC2)cc1` the Potency was inconclusive: 29.1 µM [falling, single point]. For `Cc1ccc(N2CC(C(=O)Nc3nccs3)CC2=O)cc1Cl` (stereo unspecified), the Potency was inconclusive: 29.1 µM [falling, single point]. With `CCCN(CCC)CCNC(=O)Cn1ncc2c([nH]c3ccc(C)cc32)c1=O` the Potency was inconclusive: 6.51 µM [activator, full curve, poor fit]. With `Cc1ccsc1C(=O)N1CCCC(N2CCN(c3cccc(Cl)c3)CC2)C1` (stereo unspecified) the Potency was inconclusive: 25.9 µM [falling, single point]. With `COc1ccc(NC(=O)/C=C/c2ccc(S(=O)(=O)N3CCOCC3)cc2)cc1` the Potency was “inactive”. For `COc1ccc(N2CC(C(=O)N[C@H](C(=O)NC3CCCC3)C(C)C)CC2=O)cc1` (stereo partly specified), the Potency was inconclusive: 29.1 µM [activator, single point]. With `Nc1n[nH]c(N)c1N=Nc1cccc(C(F)(F)F)c1` the Potency was inconclusive: 9.2 µM [activator, partial curve]. With `CCOC(=O)c1c(C)c2c(=O)[nH]cnc2n1-c1ccccc1` the Potency was inconclusive: 4.11 µM [falling, full curve]. In the case of `CC(OC(=O)C1=Cc2ccccc2OC1)C(=O)NC1CCCC1` (stereo unspecified), the Potency is reported as inconclusive: 18.4 µM [falling, partial curve, poor fit]. For `COc1cc(NC(=O)c2ccco2)c(OC)cc1NC(=O)CCC(=O)Nc1cc(C)ccc1C`, the Potency was inconclusive: 0.206 µM [falling, full curve, poor fit]. With `COc1ccc(N2CCN(C(=O)c3ccccc3NS(=O)(=O)c3ccccc3)CC2)cc1` the Potency was “inactive”. With `O=C1CC(c2ccco2)CC2=C1C(c1ccccc1)n1nc(C(F)(F)F)nc1N2` (stereo unspecified) the Potency was inconclusive: 46.1 µM [falling, partial curve, poor fit]. With `Cc1nnc2ccc(-c3ccc(NS(=O)(=O)c4ccccc4F)cc3)nn12` the Potency was inconclusive: 32.6 µM [falling, single point]. For `CC1CCCCN1C(=O)CSc1nnc(-c2cccs2)o1` (stereo unspecified), the Potency was inconclusive: 4.11 µM [activator, partial curve]. For `COc1ccc(C(=O)CC(Nc2ccc([N+](=O)[O-])cc2)c2ccc(OC)cc2)cc1` (stereo unspecified), the Potency was inconclusive: 13 µM [falling, partial curve, poor fit].
Potency is the fitted concentration of half-maximal effect.
